Data taken from publication PMC10561454.
Results are given in words; binding and its absence hold for the method and conditions named. In cells and extracts the contact can be indirect. A result given as binding can be weak or reduced; the word gives no strength.

Molecular target: T1, thioredoxin-interacting protein (rat (endogenous in rat chondrocytes)) (UniProt Q5M7W1)
T1 sequence: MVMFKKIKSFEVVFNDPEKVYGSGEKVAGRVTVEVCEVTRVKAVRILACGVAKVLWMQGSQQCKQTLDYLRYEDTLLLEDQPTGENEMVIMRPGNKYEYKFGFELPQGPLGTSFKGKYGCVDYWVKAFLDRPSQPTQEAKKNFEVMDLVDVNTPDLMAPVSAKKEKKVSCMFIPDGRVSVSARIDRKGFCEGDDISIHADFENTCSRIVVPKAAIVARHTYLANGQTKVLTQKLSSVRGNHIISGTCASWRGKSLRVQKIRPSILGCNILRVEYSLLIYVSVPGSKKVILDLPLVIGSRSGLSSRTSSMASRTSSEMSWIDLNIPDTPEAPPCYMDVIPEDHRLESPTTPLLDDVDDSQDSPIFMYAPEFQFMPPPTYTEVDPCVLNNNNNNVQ
Test: co-IP; lysates of IL-1β-treated rat chondrocytes in RIPA buffer; IgG or antibodies against USP25 and TXNIP at 4 °C overnight, protein A/G beads at 4 °C for 4 h; bound protein detected by western blot

- binding: binds
Substance: Ubiquitin-specific peptidase 25 (rat (endogenous in rat chondrocytes)) (enzyme)
